Drawing on PubChem BioAssay AID493014 (National Center for Advancing Translational Sciences (NCATS), 2011), this text covers AC50 for 76 molecules.

The list shows a part of the results. These are further read-outs of the screen, such as a control signal, another cell line or another target. No call is given for them. Most of these compounds were active or inconclusive in the main read-out, so they are no random draw. Words in brackets tell the shape of the fitted curve; partial curves, single points and poor fits give uncertain potencies.

A short description of this test: qHTS Assay to Find Inhibitors of Chronic Active B-Cell Receptor Signaling. Particulars: ABC-DLBCL IkBa-CBG/CBR reporter, luminescence ratio (green luciferase fused to IkBa over red control in TMD8 lymphoma cells), 4 h. An outline of the steps: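 Doxycycline induced both beetle luciferases in TMD8 lymphoma cells; IKK-driven degradation limits the IkappaBalpha-fused green signal, while red luminescence normalises for cell number and nonspecific effects. Compounds tested up to 46 uM, 4 hrs.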
(In general: qHTS replaces the single test concentration by a dilution series.)

Setting [1] is: measured here: CBR red luminescence, cell number.
Where [2] appears, read: measured here: IkBa-CBG green luminescence.

The term AC50 denotes the concentration at which the activity in the assay is half-maximal.

As for `COc1ccccc1/C=C/C(=O)c1ccc(Cl)cc1`, under setting [1], the concentration at half-maximal activity (AC50) was 11.2 µM [falling, partial curve, poor fit]. The same measure, in the same setting: in the case of `COc1cccc(-c2c(NC(C)=O)n(C)c3ccccc3c2=O)c1` it was 0.631 µM [rising, full curve, poor fit]; in that of `O=C(CSc1nc(-c2ccccc2)cs1)Nc1nccs1`, 9.2 µM [rising, partial curve, poor fit]. For the molecule `C/C(=C\c1ccco1)C1C(C#N)=C(N)OC2=C1C(=O)CC(C)(C)C2` (centres undefined), the AC50 under setting [1] is 25.9 µM [falling, single point]. On the same count and under the same terms, next, `CCCCn1c(NC(=S)Nc2ccccc2)nc2ccccc21`: 4.61 µM [rising, full curve]; `Cc1oc(-c2cccc3ccccc23)nc1CN1CCN(c2ncnc3ccccc23)CC1`: 22.4 µM [falling, single point]; `Cc1nc2nc(Cc3ccccc3)[nH]n2c(=O)c1Cc1ccccc1`: 3.26 µM [rising, partial curve, poor fit]. Consider `COc1ccc(C2=NN(c3ccc(C=O)cc3)C(c3ccccc3)C2)cc1` (centres undefined), for which the half-maximal activity concentration (AC50) under setting [1] was 1.12 µM [rising, partial curve, poor fit]. For the molecule `CN(C)CCN(Cc1ccco1)C(=O)c1oc2ccccc2c1NC(=O)COc1ccccc1`, the AC50 under setting [1] was 20 µM [falling, single point].

With `Cc1ccc(S(=O)(=O)NCCN2CCOCC2)cc1`, the concentration at half-maximal activity (AC50) under setting [1] was 7.31 µM [rising, single point]. `COc1ccc(NC(C)C(=O)N/N=C/c2ccccc2OCc2cccc(Br)c2)cc1` (centres undefined): the half-maximal activity concentration (AC50) under setting [1] was 3.26 µM [rising, partial curve, poor fit]. Still for that read-out and setting: in the case of `COc1cccc(/C=N/NC(=O)c2cc3c(OC)cccc3[nH]2)c1O` it was 0.366 µM [falling, full curve]; in that of `Fc1ccc(CO/N=C2\CCCc3nonc32)cc1`, 5.01 µM [rising, partial curve, poor fit].

With `Cc1ccc(C(=O)N2C(CC(=O)Nc3ccc(Cl)cc3)C(=O)NC3CCCCC32)cc1` (centres undefined), the AC50 under setting [2] is 17.8 µM [falling, partial curve, poor fit]. For `Oc1cccc2ccc(/C=C/c3ccccc3Cl)nc12`, under setting [1], the half-maximal activity concentration (AC50) was 0.316 µM [rising, full curve, poor fit]. In the case of `CCCSc1nsc(NC(=O)Nc2ccc(F)cc2F)n1`, under setting [1], the half-maximal activity concentration (AC50) is 3.98 µM [falling, full curve]. The same measure, in the same setting: next, `Cc1ccc(N(C(=O)c2ccc(Br)o2)C2C=CS(=O)(=O)C2)cc1` (centres undefined): 9.2 µM [falling, single point]. With `CC(=O)Nc1ccc(Nc2nnc(-c3ccc(C)c(S(=O)(=O)NCC4CCCO4)c3)c3ccccc23)cc1` (centres undefined), under setting [1], the concentration at half-maximal activity (AC50) was 14.1 µM [falling, partial curve]. Still for that read-out and setting: in the case of `Cc1cc(C2C(C#N)=C(N)Oc3n[nH]c(C)c32)c(C)s1` (centres undefined) it was 1 µM [falling, full curve, poor fit]; in that of `Cc1ccc(C)c2c1cc(C)c1nnc(SCc3ccccn3)n12`, 2.06 µM [rising, full curve, poor fit]; in that of `COc1cccc2cc(C(=O)NCc3ccccn3)c(=O)oc12`, 1.84 µM [falling, partial curve, poor fit]. On the same count and under the same terms, next, `Clc1ccc(CN=C(Nc2ccccc2)NC2CCCCC2)cc1`: 11.2 µM [falling, partial curve, poor fit]; `c1ccc2nc3[nH]cnc3nc2c1`: 3.16 µM [falling, full curve]; `COc1ccc(C(=O)COC(=O)c2cncc(Br)c2)cc1`: 23.1 µM [falling, partial curve, poor fit]. Still for that read-out and setting: in the case of `CCOc1ccccc1N(CC(=O)N1CCOCC1)S(=O)(=O)c1ccc(SC)cc1` it was 29.1 µM [rising, single point]. Turning to `O=C(N/N=C/c1cccc(O)c1)c1cc(-c2ccc3c(c2)OCO3)n[nH]1`, the concentration at half-maximal activity (AC50) under setting [1] is 8.2 µM [falling, partial curve].

`Cc1cc(-c2nnc3n2CCCCC3)c(C)n1-c1ccccc1`: the AC50 under setting [1] is 2 µM [rising, partial curve, poor fit].

For `CCCCNc1nc2ccccc2[nH]1`, the AC50 under setting [1] was 8.2 µM [rising, partial curve, poor fit].

For the molecule `COc1ccc(CNC(=O)c2[nH]c(C)c(C(C)=O)c2C)cc1`, the concentration at half-maximal activity (AC50) under setting [1] is 0.1 µM [rising, full curve, poor fit]. Take `CN(C)CC/C=C1\c2ccccc2CSc2ccccc21`: the AC50 under setting [1] was 29.1 µM [falling, single point]. Still for that read-out and setting: next, `CSc1nsc(/C=C/Nc2ccc(F)cc2)c1C#N`: 22.4 µM [falling, single point]. Regarding `CCOC(=O)c1cc(-c2ccccc2)n(CCC(=O)Nc2ccc(Cl)c(C(F)(F)F)c2)c1C`, the AC50 under setting [1] is 35.5 µM [falling, single point]. Consider `Cc1ccc(OCCNC(=O)c2ccc3ccccc3n2)cc1`, for which the AC50 under setting [1] was 11.2 µM [rising, partial curve, poor fit].

For the molecule `Cc1ccc(C#N)c(SCc2ccccc2F)n1`, the concentration at half-maximal activity (AC50) is, setting by setting: under setting [1], 22.4 µM [rising, partial curve, poor fit]; under setting [2], 28.2 µM [falling, partial curve, poor fit]. Regarding `CS(=O)(=O)C1=NN2C(=N)/C(=C\c3ccc(OCCOc4ccccc4)cc3)C(=O)N=C2S1`, under setting [1], the concentration at half-maximal activity (AC50) was 2.82 µM [rising, partial curve]. `Cc1cc(C)n(Cc2ccccc2F)c(=O)c1C#N`: the half-maximal activity concentration (AC50) under setting [1] is 14.6 µM [rising, partial curve, poor fit]. In the case of `C/C(NCCN1CCOCC1)=C(\C#N)C(N)=O`, under setting [1], the AC50 is 14.6 µM [rising, partial curve, poor fit]. `CCOc1ccc(/C=N/NC(=O)c2[nH]c3ccc(C)cc3c2C)cc1`: the half-maximal activity concentration (AC50) under setting [1] is 20 µM [falling, partial curve, poor fit]. On the same count and under the same terms, next, `O=S(=O)(c1ccc(F)cc1)N1CCCC1`: 25.1 µM [rising, single point].

As for `COc1ccccc1C1CC(=O)Nc2cc3c(cc21)OCCO3` (centres undefined), the AC50 under setting [2] is 18.4 µM [falling, partial curve].

For `CCn1cnc2cc(NCc3cccs3)ccc21`, the half-maximal activity concentration (AC50) under setting [1] was 15.8 µM [falling, single point]. On to `Cc1cccc(NC(=O)C2CCCN(C(=O)Nc3ccccc3)C2)c1C` (centres undefined), for which the half-maximal activity concentration (AC50) under setting [1] is 2.91 µM [rising, full curve, poor fit]. For `O=C(Nc1ccc(Cl)cc1)c1cc2nc(-c3ccco3)cc(C(F)(F)F)n2n1`, the AC50 under setting [1] is 23.1 µM [rising, single point]. The same measure, in the same setting: in the case of `CN(C)c1ccc(C(=S)N2CCCC2)cc1Br` it was 0.631 µM [rising, full curve, poor fit]; in that of `O=C1C=C(c2cccs2)CC(c2cccs2)C1n1cnc([N+](=O)[O-])c1` (centres undefined), 11.2 µM [falling, partial curve, poor fit]; in that of `Nc1ncnc2c1ncn2[C@@H]1O[C@H](CNCc2ccc(OCC(=O)Nc3ccccn3)cc2)[C@@H](O)[C@H]1O`, 23.1 µM [falling, single point]. Consider `CC1(C)C(=O)Nc2ccccc2N1C(=O)COC(=O)CSc1ccc(Cl)cc1`, for which the AC50 under setting [1] is 32.6 µM [rising, single point].

For the molecule `CCOC(=O)N1CCc2c(sc(NCc3ccc(OC)c(OC)c3OC)c2C(=O)Nc2ccc(OC)cc2OC)C1`, the half-maximal activity concentration (AC50) under setting [1] is 0.562 µM [rising, full curve, poor fit]. As for `COc1ccccc1C(=O)NCCC(=O)N1CCN(C(=O)c2ccco2)CC1`, the AC50 under setting [1] was 0.517 µM [rising, full curve, poor fit]. `Cc1c(Cl)cccc1-n1c(SCC(=O)NCc2ccccc2Cl)nnc1-c1ccncc1`: the concentration at half-maximal activity (AC50) under setting [1] is 25.1 µM [falling, partial curve, poor fit]. For the molecule `O=C(CSc1cccc[n+]1[O-])c1ccc(-c2ccccc2)cc1`, the half-maximal activity concentration (AC50) under setting [1] was 35.5 µM [falling, single point] and the AC50 under setting [2] was 8.91 µM [falling, partial curve, poor fit]. `O=C(CNC(=O)C(c1ccccc1)c1ccccc1)N/N=C/c1ccc(O)cc1O`: the AC50 under setting [1] is 11.2 µM [falling, single point]. Still for that read-out and setting: next, `CC1SCC(=NOCc2c(Cl)cccc2Cl)CS1` (centres undefined): 0.794 µM [rising, partial curve, poor fit]; `Cc1nc2ccc(F)cc2cc1C(=O)Nc1ccc(Cl)c(Cl)c1`: 1.46 µM [rising, full curve]; `CCCOc1ccc(C2C(=O)N(C3CCC(C)CC3)CC(=O)N2CCC2=CCCCC2)cc1OC` (centres undefined): 4.47 µM [falling, partial curve, poor fit]. The same measure, in the same setting: in the case of `CC(=O)N/N=C(\N)c1nonc1N` it was 2.24 µM [falling, full curve].

In the case of `CC(C)c1ccc(C2=C(O)c3ccccc3C(=O)C2=O)cc1`, under setting [1], the AC50 is 13 µM [falling, partial curve, poor fit]. Still for that read-out and setting: next, `CC(C)(Oc1ccc(Cl)cc1)C(=O)NCc1n[nH]c(=O)c2ccccc12`: 18.4 µM [falling, single point]; `Cc1c(N2CCCC2)cc2c(c1NC(=O)c1ccccc1Cl)C(C)(C)CC2(C)C`: 0.1 µM [falling, full curve, poor fit]; `Cc1nc(C)c(-c2csc(Nc3ccc(S(N)(=O)=O)cc3)n2)s1`: 20 µM [falling, single point]. As to `CCOc1ccccc1-n1c(SCC(=O)NCc2ccco2)nnc1-c1ccncc1`, the half-maximal activity concentration (AC50) under setting [1] is 29.1 µM [falling, single point].

Regarding `Cc1nc(-c2ccccc2)sc1-c1nnc(C2CC2)o1`, the concentration at half-maximal activity (AC50) under setting [1] is 5.01 µM [rising, single point].

`O=C(c1ccccc1)c1cc(Cl)ccc1N1C(=O)C=CC1=O`: the AC50 under setting [1] was 35.5 µM [falling, single point] and the AC50 under setting [2] is 35.5 µM [rising, partial curve, poor fit]. In the case of `CCOc1ccc(NC(=S)N(CCCN2CCCC2)Cc2cccn2Cc2ccc(Cl)cc2)cc1`, the AC50 under setting [1] is 10 µM [falling, partial curve, poor fit]. In the case of `CCN(CC)S(=O)(=O)c1ccc(N2CCOCC2)c(NC(=O)c2ccc(N3CCCC3=O)cc2)c1`, under setting [1], the half-maximal activity concentration (AC50) is 4.11 µM [rising, full curve, poor fit]. On the same count and under the same terms, in the case of `Cc1n[nH]c(=O)nc1NCCc1ccccc1` it was 2.59 µM [rising, partial curve, poor fit]. Consider `O=C(CCC(=O)Nc1nnc(C2CCCCC2)s1)NCc1ccc(F)cc1`, for which the AC50 under setting [1] is 17.8 µM [rising, single point]. Take `COc1ccccc1C(=O)Nc1nnc(SCC(=O)Nc2ccc3c(c2)oc2ccccc23)s1`: the AC50 under setting [1] is 0.164 µM [falling, full curve, poor fit]. For the molecule `Cc1c(-c2ccc(O)cc2)nc2nc(-c3ccccc3)c(-c3ccccc3)nn12`, the concentration at half-maximal activity (AC50) under setting [1] is 11.2 µM [falling, partial curve, poor fit].

In the case of `CCOC(=O)c1c(C)oc2c1c1c(c3ccccc32)OCN(Cc2cccnc2)C1`, under setting [1], the half-maximal activity concentration (AC50) is 0.82 µM [falling, full curve, poor fit]. Regarding `CCOC(=O)c1ccc(NC(=O)CSc2nc3c(c(=O)n2C)SC(C)C3)cc1` (centres undefined), under setting [1], the concentration at half-maximal activity (AC50) is 11.6 µM [falling, partial curve, poor fit]. `O=C1NC(c2ccccn2)Nc2sc3c(c21)CCC3` (centres undefined): the AC50 under setting [1] is 35.5 µM [rising, single point]. `Nc1ccc(Br)cc1Br`: under setting [1], the AC50 is 3.16 µM [rising, partial curve, poor fit]. As to `Cc1ccc(S(=O)(=O)CCC(=O)OCC(=O)N(C)CC(=O)Nc2ccc(F)cc2)cc1`, the AC50 under setting [1] was 11.6 µM [falling, partial curve, poor fit]. On the same count and under the same terms, next, `COc1cc(/C=N/n2c(-c3ccc4c(c3)NC(=O)CO4)csc2=Nc2cccc(C)c2)ccc1O`: 23.1 µM [falling, partial curve, poor fit].

For the molecule `COc1ccc2c(Cl)c(C(=O)NCC3CCCO3)sc2c1Cl` (centres undefined), under setting [1], the AC50 was 0.164 µM [rising, full curve].
